## Screening data

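Luminescence from an EWS-FLI1 target-promoter (NR0B1) reporter, set against a CMV-promoter reporter, two days after silencing single genes in TC32 Ewing sarcoma cells.
Each siRNA was applied at 20 nM.
A z-score of the log NR0B1-over-CMV signal, less the median of siRNAs with the same seed; more negative means a stronger specific loss of the NR0B1 reporter.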

This is part of the screen; most of the strongest results are not listed here.
Sequences are the guide (antisense) strand, without overhang.

With UGGACUUACAAGACGAUGG against PCNX2 the assay gave seed-corrected z-score -0.2472. UAUUGUAAACCGACCAUAC against YES1 read seed-corrected z-score 0.4783. AAUCUGUCAAGUGAGAAAC against ZBED6CL gave seed-corrected z-score -0.7188. UUUUGUCGUACGUUGUCUC against GDNF gave seed-corrected z-score -1.044. Result for UGUCCACCCAAUCACAUCC against SIPA1L2 was seed-corrected z-score 0.6022.

With UUUUCGAUCGGCUUCCUCC against CALD1 the assay gave seed-corrected z-score 0.7172. Result for UACCCUCCGUCUUCAAACC against LGALS9B was seed-corrected z-score -0.5761. UGGAGUCCAACCUCAAACC against ZP3 gave seed-corrected z-score -0.9492. UACGCAUCACUGUCAACGC against SLC4A3 read seed-corrected z-score 0.5203. Result for UAGAGUGAGGUGAUAGGUC against SPG20-AS1 was seed-corrected z-score -0.0257.

With UUCGGCAUGAAAUUCACCG against SYNM the assay gave seed-corrected z-score 0.0973. With UACGAUAUCCUUUUGCAUG against NAF1 the assay gave seed-corrected z-score 0.2162. UAACGUAAGUCUUUCCGUC against EIF2AK2 gave seed-corrected z-score -0.1185. For UAAUCCGCAAUCCCAAUCU against FBXO41 the result was seed-corrected z-score 0.2296. Result for UUCUCGUUGAAAUUAAUCC against CD63 was seed-corrected z-score 0.04176.

UCAGGUUCUCCAUACAGCC against RSPH14 gave seed-corrected z-score -0.5738. With UAGGACUACAUGAUAAUCC against MEX3C the assay gave seed-corrected z-score 0.01576. UGUCAUACCAGGAAAUGAG against GAPDH read seed-corrected z-score -0.4836. Result for UCGCUUUACAGUCUCGCCC against PCBP4 was seed-corrected z-score 0.09237. Result for UACGUUUAUUUCAAUGGAC against LACC1 was seed-corrected z-score -0.4346.

UCACUGUUGACUACAGCUG against KBTBD12 read seed-corrected z-score 1.201. UUCCAUAUACCUGACCUCC against PSMB9 gave seed-corrected z-score 0.7681. UUCUUAGCAAUGGUCAUUG against HSPD1 read seed-corrected z-score 0.2218. With UCAGUAAAUGCAGUAAGGA against OR9Q2 the assay gave seed-corrected z-score 0.6054. For AGCUUCAUAAAUAAAGGGU against IFNL1 the result was seed-corrected z-score 0.07694.

Result for UGUGCAAUAGAGGUAAGGG against OR8K3 was seed-corrected z-score 0.07097. Result for UCACCUUCAACUGCAGGAG against FKBP8 was seed-corrected z-score 0.4709.

The first 3 entries again:

- UGGACUUACAAGACGAUGG against PCNX2 : seed-corrected z-score -0.2472
- UAUUGUAAACCGACCAUAC against YES1 : seed-corrected z-score 0.4783
- AAUCUGUCAAGUGAGAAAC against ZBED6CL : seed-corrected z-score -0.7188

From PubChem BioAssay record AID1159506 (NCATS, 2015).